Data reported in patent publication US20260265396A1.
Where a chain is given by its changes, count along the chain named. Names may count otherwise. No constants are given. Whether binding was seen depends on the method and setting. Some binding calls cover weakened binding; strength is not graded here.

B1: h26D3 Fab (humanized 26D3) (Fab, V domains shown)
VH: EVQLVQSGAEVKKPGSSVKVSCKASGYIFTDYNMDWVRQAPGQGLEWIGDINPDYDTTSYNEKFKGRATLTVDKSTSTAYMELSSLRSEDTAVYYCARGGYSGSSYYHPMDYWGQGTLVTVSS
VL: DIQMTQSPSSVSASVGDRVTITCKSSQSLLYSTNQKNYLAWYQQKPGKAPKLLIYWASTRESGVPSRFSGSGSGTDFTLTISSLQPEDFATYYCQQYFIYPRTFGQGTKVEIK
B2: h26D3 variant LC1 Fab (VL Y31A) (Fab, V domains shown)
VH: B1 VH
VL: B1 VL with Y31A
B3: h26D3 variant HC6 Fab (VH Y55A) (Fab, V domains shown)
VH: B1 VH with Y55A
VL: B1 VL
B4: h26D3 variant LC5 Fab (VL Y97A) (Fab, V domains shown)
VH: B1 VH
VL: B1 VL with Y97A
B5: h26D3 variant HC3 Fab (VH D35A) (Fab, V domains shown)
VH: B1 VH with D35A
VL: B1 VL
B6: 26D3-Fab (murine) (Fab, V domains shown)
VH: EVQLQQFGVELVKPGASVKISCKASGYIFTDYNMDWVKQSHGKSLEWIGDINPDYDTTSYNEKFKGKATLTVDKSSSTAYMELRSLTSEDTAVYYCARGGYSGSSYYHPMDYWGQGTSVTVSS
VL: DIVMSQSPSSLAVSVGEKITMSCKSSQSLLYSTNQKNYLAWYQQKPGQSPELLIYWASTRESGVPDRFTGSGSGTDFTLTISNVRAEDLAVYYCQQYFIYPRTFGGGTKLEIK
B7: h26D3-HC6/LC5 (Fab, V domains shown)
VH: B1 VH with Y55A
VL: B1 VL with Y97A
B8: h26D3 variant HC10 Fab (VH Y106A) (Fab, V domains shown)
VH: B1 VH with Y106A
VL: B1 VL
B9: h26D3-HC10/LC1 (Fab, V domains shown)
VH: B1 VH with Y106A
VL: B1 VL with Y31A
B10: h26D3 variant HC11 Fab (VH Y107A) (Fab, V domains shown)
VH: B1 VH with Y107A
VL: B1 VL
B11: h26D3-HC10/LC5 (Fab, V domains shown)
VH: B1 VH with Y106A
VL: B1 VL with Y97A
B12: mouse monoclonal antibody 26D3 (antibody, mouse IgG2a, V domains shown)
VH: B6 VH
VL: B6 VL

Tests used:
[1] = biological target: cynomolgus TfR1, construct not stated (cynomolgus); experiment: indirect ELISA, plate coated with cTfR1, Fab dilution series, anti-human IgG F(ab')2-HRP [upper right panel cTfR1]
[2] = biological target: cynomolgus TfR1, construct not stated (cynomolgus); experiment: BLI (Octet), 15 nM Fab on cTfR1 captured by biotinylated human holo-transferrin on streptavidin sensors [panel mouse 26D3-Fab, cTfR1]
[3] = biological target: cynomolgus TfR1, construct not stated (cynomolgus); experiment: BLI, cTfR1 captured on biotinylated holo-transferrin, 15 nM Fab
[4] = biological target: human TfR1, recombinant, construct not stated for the experiment (human) (UniProt P02786); experiment: indirect ELISA, plate coated with 1 ug/ml recombinant hTfR1 ectodomain, Fab 1:3 dilution series, anti-human IgG F(ab')2-HRP [lower panel hTfR1]
[5] = biological target: cynomolgus TfR1, construct not stated (cynomolgus); experiment: BLI (Octet), IgG captured from crude hybridoma supernatant on anti-mouse sensors, 250 nM cTfR1 in solution
[6] = biological target: chimeric TfR1 consisting of human protease like domain grafted on mouse TfR1 ectodomain (SEQ ID NO:59) (human/mouse chimera); experiment: indirect ELISA (legend of FIG. 7)
[7] = biological target: cynomolgus TfR1, construct not stated (cynomolgus); experiment: BLI, IgG captured from hybridoma supernatant, 250 nM cTfR1
[8] = biological target: cynomolgus TfR1, construct not stated (cynomolgus); experiment: ELISA, hybridoma supernatant
[9] = biological target: chimeric TfR1 consisting of human protease like domain grafted on mouse TfR1 ectodomain (SEQ ID NO:59) (human/mouse chimera); experiment: indirect ELISA, antigen coated at 1 µg/ml, mouse IgG
[10] = biological target: chimeric TfR1 consisting of human protease like domain grafted on mouse TfR1 ectodomain (SEQ ID NO:59) (human/mouse chimera); experiment: indirect ELISA, plate coated with 1 ug/ml h/m protease-like domain chimera, mouse IgG dilution series (axis labelled TfR (ng/ml)) [D]

Binder | binding [1] | binding [4] | also measured
B1 | binds | – | –
B2 | binds | – | –
B3 | binds | – | –
B4 | binds | – | –
B5 | binds | – | –
B6 | – | – | binding [2]: binds; binding [3]: binds
B7 | binds | – | –
B8 | – | binds | –
B9 | – | binds | –
B10 | – | binds | –
B11 | – | binds | –
B12 | – | – | binding [5]: binds; binding [6]: binds; binding [7]: binds; binding [8]: binds; binding [9]: binds; binding [10]: binds
